Record: PubChem BioAssay AID1224830 (NIAID, 2016)
Aim: 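Genes whose knock-down alters the TNF-alpha reporter response to LPS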 (primary screen). Cells: human THP-1 monocytic leukaemia cells, TNF dual-luciferase reporter clone, PMA-differentiated to macrophage-like cells. Knock-down reagent: siRNA pool against human genes, 50 nM. Timing: LPS for 4 h, given about 3 days after siRNA transfection. Treatment: bacterial LPS (TLR4 ligand), 10 ng/ml. Read-out: 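Ratio of firefly to renilla light, scaled to the plate median and expressed as a robust z-score per replicate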. Scale: TNF reporter robust z-score: higher = stronger TNF reporter response to LPS. Active means: 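a well is active when its z-score exceeds 2.8 or falls below -1.5; control wells carry no call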.
The whole screen tested about 18,000 reagents; below is a part drawn at random. About 2,900 of all reagents (16%) count as active. 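Calls are made per well; low scores hint the gene aids the LPS response, high scores that it dampens it.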 Repeated entries: four replicate wells of each siRNA pool. No sequences are given here.

For HDHD3 (haloacid dehalogenase like hydrolase domain containing 3), what does the deposit list?
TNF reporter robust z-score: -1.2; outcome: inactive

For HDHD3 (haloacid dehalogenase like hydrolase domain containing 3), what does the deposit list?
TNF reporter robust z-score: 0.01; outcome: inactive

With HDHD3 (haloacid dehalogenase like hydrolase domain containing 3), how do the results read?
TNF reporter robust z-score: -0.54; outcome: inactive

With HDHD3 (haloacid dehalogenase like hydrolase domain containing 3), what does the deposit list?
TNF reporter robust z-score: -0.71; outcome: inactive

What did the screen give for DCPH1 (damage control phosphatase 1)?
TNF reporter robust z-score: 1.5; outcome: inactive

How did the screen score DCPH1 (damage control phosphatase 1)?
TNF reporter robust z-score: 0.61; outcome: inactive

With DCPH1 (damage control phosphatase 1), how do the results read?
TNF reporter robust z-score: 0.75; outcome: inactive

Which result is listed for DCPH1 (damage control phosphatase 1)?
TNF reporter robust z-score: 1.67; outcome: inactive

For ST3GAL5 (ST3 beta-galactoside alpha-2,3-sialyltransferase 5), what was measured?
TNF reporter robust z-score: -0.07; outcome: inactive

For ST3GAL5 (ST3 beta-galactoside alpha-2,3-sialyltransferase 5), how do the results read?
TNF reporter robust z-score: -0.23; outcome: inactive

For ST3GAL5 (ST3 beta-galactoside alpha-2,3-sialyltransferase 5), what was measured?
TNF reporter robust z-score: -0.16; outcome: inactive

For ST3GAL5 (ST3 beta-galactoside alpha-2,3-sialyltransferase 5), what does the deposit list?
TNF reporter robust z-score: 0.43; outcome: inactive

How did the screen score PRTG (protogenin)?
TNF reporter robust z-score: 1.26; outcome: inactive

With PRTG (protogenin), how do the results read?
TNF reporter robust z-score: 0.65; outcome: inactive

How did the screen score PRTG (protogenin)?
TNF reporter robust z-score: 0.42; outcome: inactive

With PRTG (protogenin), how do the results read?
TNF reporter robust z-score: 0.59; outcome: inactive

What did the screen give for HCRTR1 (hypocretin receptor 1)?
TNF reporter robust z-score: 1.38; outcome: inactive

For HCRTR1 (hypocretin receptor 1), how do the results read?
TNF reporter robust z-score: 1.94; outcome: inactive

What did the screen give for HCRTR1 (hypocretin receptor 1)?
TNF reporter robust z-score: 1.56; outcome: inactive

How did the screen score HCRTR1 (hypocretin receptor 1)?
TNF reporter robust z-score: 1; outcome: inactive

What is on record for ATP6V1G3 (ATPase H+ transporting V1 subunit G3)?
TNF reporter robust z-score: -0.33; outcome: inactive

How did the screen score ATP6V1G3 (ATPase H+ transporting V1 subunit G3)?
TNF reporter robust z-score: -0.83; outcome: inactive

For ATP6V1G3 (ATPase H+ transporting V1 subunit G3), how do the results read?
TNF reporter robust z-score: 0.47; outcome: inactive

Which result is listed for ATP6V1G3 (ATPase H+ transporting V1 subunit G3)?
TNF reporter robust z-score: -0.5; outcome: inactive

With SLC2A5, what was measured?
TNF reporter robust z-score: -0.07; outcome: inactive

For SLC2A5, what was measured?
TNF reporter robust z-score: 0.29; outcome: inactive

Which result is listed for SLC2A5?
TNF reporter robust z-score: -0.17; outcome: inactive

Which result is listed for SLC2A5?
TNF reporter robust z-score: 0.12; outcome: inactive

What is on record for RNF14 (ring finger protein 14)?
TNF reporter robust z-score: 1.87; outcome: inactive

How did the screen score RNF14 (ring finger protein 14)?
TNF reporter robust z-score: 0.43; outcome: inactive

Which result is listed for RNF14 (ring finger protein 14)?
TNF reporter robust z-score: 0.28; outcome: inactive

What did the screen give for RNF14 (ring finger protein 14)?
TNF reporter robust z-score: 3.4; outcome: active

Reagents listed above marked active:
RNF14 (ring finger protein 14) → TNF reporter robust z-score: 3.4; outcome: active
